Among all 410,000 compounds or so, about 310 (0.076%) were called active. The shares of active, inactive and inconclusive entries below differ from those in the screen. The call rests on the fitted dose curve; in most records, active means well fitted activation curve with a large enough effect; inconclusive means small, poorly fitted or top-dose-only effect, or another doubt; inactive means no such curve, though single readings can be large or run the other way. Potencies beside an inconclusive call are fits to weak or partial responses and may not hold up.
Target: Parathyroid hormone/parathyroid hormone-related peptide receptor (Homo sapiens) (UniProt Q03431)
Assay: qHTS for PTHR1 Agonists: Primary Screen; further: nearly all actives have a fitted effect of over 55% in size
Settings: HEK293 GP2 PTHR1 cells, GloSensor cAMP luminescence, 1 h; activation: at 115 µM (top of the series) unless noted; series mostly up to 115 µM
Procedure, shortened: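 HEK-293-derived GP2 cells expressing PTHR1 and a GloSensor cAMP reporter, 3,000/well, plated overnight, given luciferin plus IBMX (each 0.5 mM as added) for 1 h at 37 °C, then compound for 1 h at 37 °C. Luminescence was read after 15 min at room temperature.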
Potency means the concentration at half of the fitted maximal effect.

By UniProt entry, the sequences of proteins in these tests, tags left out.
UniProt Q03431, whole entry, looked up: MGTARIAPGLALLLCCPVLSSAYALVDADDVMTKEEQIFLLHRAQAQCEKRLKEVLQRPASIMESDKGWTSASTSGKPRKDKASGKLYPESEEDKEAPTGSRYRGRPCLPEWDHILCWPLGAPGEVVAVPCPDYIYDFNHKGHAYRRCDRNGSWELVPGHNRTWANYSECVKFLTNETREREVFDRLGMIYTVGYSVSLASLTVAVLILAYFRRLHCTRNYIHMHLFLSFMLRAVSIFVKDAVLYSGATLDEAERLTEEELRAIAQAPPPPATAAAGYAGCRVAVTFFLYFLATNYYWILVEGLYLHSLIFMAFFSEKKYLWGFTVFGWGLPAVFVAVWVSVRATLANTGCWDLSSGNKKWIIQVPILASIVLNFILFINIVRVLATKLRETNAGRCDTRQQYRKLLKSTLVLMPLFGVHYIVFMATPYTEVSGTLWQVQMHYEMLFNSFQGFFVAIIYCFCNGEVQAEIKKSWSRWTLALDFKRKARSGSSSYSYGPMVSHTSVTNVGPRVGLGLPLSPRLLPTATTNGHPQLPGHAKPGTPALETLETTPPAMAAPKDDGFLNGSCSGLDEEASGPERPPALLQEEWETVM

| Structure (SMILES) | Potency | activation | outcome |
| --- | --- | --- | --- |
| Cc1ccc(NC(=O)CCC(=O)NNC(=O)COc2cccc3ccccc23)c(C)c1 | inconclusive: 39.8 µM [activator, single point] |  |  |
| COc1ccc(CCNc2nc(-c3ccncc3)cs2)cc1OC |  | inactive: -81% |  |
| CCC1=NN(C(=O)C(=O)Nc2ccc(OC)cc2)C(O)(C(F)(F)F)C1 (configuration not stated) | inconclusive: 31.6 µM [activator, single point] |  |  |
| Cc1ccc(NC(=O)c2c(NC(=O)Cc3ccccc3)sc3c2CCC3)cc1 | inconclusive: 11.2 µM [activator, partial curve] |  |  |
| CCOC(=O)[C@H]1[C@H]2COc3ccc(Br)cc3[C@@H]2N2C(=O)CN(C)C(=O)[C@@]12C |  | inconclusive: 39.4% [activator] |  |
| c1cc(-c2nn[nH]n2)ccc1CN1CCCCC1 | inconclusive: 28.2 µM [activator, partial curve, poor fit] |  |  |
| CCc1cc(-c2n[nH]c(=S)n2CC)cs1 |  | inactive: -16.5% |  |
| ON=C1CCCC2CCCCC12 (configuration not stated) |  |  | inactive |
| O=C1ON=C(c2ccccc2)/C1=C/c1ccc(OS(=O)(=O)c2ccccc2)cc1 |  |  | inactive |
| CC1CCc2[nH]nc(C(=O)O)c2C1 (configuration not stated) |  | inconclusive: 40.7% [activator] |  |
| CC(C)NC(=O)c1cc(-c2ccc(Br)cc2)on1 |  | inactive: -14.3% [at 57.5 µM] |  |
| CC(C)N1CCN(Cc2coc3ccccc3c2=O)CC1CCO (configuration not stated) |  | inconclusive: 40.4% [activator] |  |
| COc1ccc(OC)c(Nc2nc(-c3sc(NC(=O)CC(C)C)nc3C)cs2)c1 | inconclusive: 112 µM [activator, partial curve, poor fit] |  |  |
| COC(=O)c1cc(NC(=O)C2CCCN(S(=O)(=O)c3c(C)n[nH]c3C)C2)cc(C(=O)OC)c1 (configuration not stated) |  | inconclusive: -32.7% [activator] |  |
| NS(=O)(=O)c1ccc(CCNC(=O)COC(=O)C2CCC2)cc1 |  | inactive: -24.5% |  |
| O=C(CSc1ccc(Cl)cc1)NC(=O)c1ccccc1 |  | inconclusive: 36.8% [activator] |  |
| CCNS(=O)(=O)c1ccc(NC(=O)c2ccccc2)cc1 | inconclusive: 39.8 µM [activator, single point] |  |  |
| COc1ccc(N(CC(=O)N/N=C/c2cccs2)S(=O)(=O)c2ccc(OC)c(OC)c2)cc1 |  | inconclusive: 67.4% [activator] [at 57.5 µM] |  |
| Cn1c(SCC(=O)C(C)(C)C)nnc1-c1ccncc1 |  |  | inactive |
| NC(=O)c1cc(NC(=O)COC(=O)CCCN2C(=O)c3cccc4cccc(c34)C2=O)cc(C(N)=O)c1 |  | inconclusive: 23.7% [activator] |  |
| O=C(CCc1ccccc1)NNC(=S)NC(=O)c1ccccc1 |  | inconclusive: -9.8% [activator] [at 57.5 µM] |  |
| O=C(CSc1nnc(-c2ccccc2Br)o1)N1CCc2ccccc2C1 | inconclusive: 39.8 µM [activator, single point] |  |  |
| CCNS(=O)(=O)c1ccc(CCC(N)=O)cc1 |  | inconclusive: 9.2% [activator] |  |
| Cc1[nH][nH]c(=O)c1C(c1c(C)[nH][nH]c1=O)c1cn(Cc2ccc(F)cc2)c2ccccc12 |  |  | inactive |

Given with tabs: entries from further up.
Structure (SMILES)	Potency	activation	outcome
Cc1ccc(NC(=O)CCC(=O)NNC(=O)COc2cccc3ccccc23)c(C)c1	inconclusive: 39.8 µM [activator, single point]		
COc1ccc(CCNc2nc(-c3ccncc3)cs2)cc1OC		inactive: -81%	
CCC1=NN(C(=O)C(=O)Nc2ccc(OC)cc2)C(O)(C(F)(F)F)C1 (configuration not stated)	inconclusive: 31.6 µM [activator, single point]		
CCOC(=O)[C@H]1[C@H]2COc3ccc(Br)cc3[C@@H]2N2C(=O)CN(C)C(=O)[C@@]12C		inconclusive: 39.4% [activator]	
c1cc(-c2nn[nH]n2)ccc1CN1CCCCC1	inconclusive: 28.2 µM [activator, partial curve, poor fit]		
CCc1cc(-c2n[nH]c(=S)n2CC)cs1		inactive: -16.5%	
O=C1ON=C(c2ccccc2)/C1=C/c1ccc(OS(=O)(=O)c2ccccc2)cc1			inactive
CC1CCc2[nH]nc(C(=O)O)c2C1 (configuration not stated)		inconclusive: 40.7% [activator]	
CC(C)NC(=O)c1cc(-c2ccc(Br)cc2)on1		inactive: -14.3% [at 57.5 µM]	
CC(C)N1CCN(Cc2coc3ccccc3c2=O)CC1CCO (configuration not stated)		inconclusive: 40.4% [activator]	
COc1ccc(OC)c(Nc2nc(-c3sc(NC(=O)CC(C)C)nc3C)cs2)c1	inconclusive: 112 µM [activator, partial curve, poor fit]		
O=C(CSc1ccc(Cl)cc1)NC(=O)c1ccccc1		inconclusive: 36.8% [activator]	
COc1ccc(N(CC(=O)N/N=C/c2cccs2)S(=O)(=O)c2ccc(OC)c(OC)c2)cc1		inconclusive: 67.4% [activator] [at 57.5 µM]	
Cn1c(SCC(=O)C(C)(C)C)nnc1-c1ccncc1			inactive
NC(=O)c1cc(NC(=O)COC(=O)CCCN2C(=O)c3cccc4cccc(c34)C2=O)cc(C(N)=O)c1		inconclusive: 23.7% [activator]	
Cc1[nH][nH]c(=O)c1C(c1c(C)[nH][nH]c1=O)c1cn(Cc2ccc(F)cc2)c2ccccc12			inactive

(more compounds)

| Structure (SMILES) | Potency | activation | outcome |
| --- | --- | --- | --- |
| OC(CN1C2=NCCCN2c2ccccc21)c1ccc2c(c1)OCO2 (configuration not stated) | inconclusive: 35.5 µM [activator, partial curve, poor fit] |  |  |
| Cc1[nH]nc(SCC(=O)NC2CCCC2)c1[N+](=O)[O-] | inconclusive: 20 µM [activator, partial curve, poor fit] |  |  |
| CCOc1ccccc1OCCCC(=O)NC1=NCCS1 | inconclusive: 2 µM [activator, full curve] |  |  |
| COc1ccc(-c2nc3ccc(NS(=O)(=O)c4ccc(C)cc4)cc3o2)cc1 |  | inactive: -27.6% |  |
| COc1ccccc1/C=C/C=N/NC(=O)CCn1cnc2ccccc21 | inconclusive: 2.24 µM [activator, full curve, poor fit] |  |  |
| CCOc1ccc(CCNS(=O)(=O)c2cn(C)cn2)cc1OCC | inconclusive: 50.1 µM [activator, partial curve, poor fit] |  |  |
| O=C(/C=C/c1ccc(OC(F)F)cc1)Nc1cccc(S(=O)(=O)N2CCOCC2)c1 |  | inactive: -36.7% |  |
| Cc1c(N)cc(C(=O)N2CCOCC2)cc1[N+](=O)[O-] | inconclusive: 5.01 µM [activator, full curve, poor fit] |  |  |
| Cc1cccc(NC(=S)Nc2ccccn2)c1 |  | inactive: -14.7% |  |
| O=[N+]([O-])c1cc(S(=O)(=O)C(F)(F)F)ccc1N1CCN(c2ccccc2)CC1 |  | inactive: -20.2% |  |
| O=c1[nH]c2cc(Cl)c([N+](=O)[O-])nc2[nH]1 | inconclusive: 28.2 µM [activator, single point] |  |  |
| COc1ccc(NC(=O)C2CCCN(S(=O)(=O)c3ccc(Br)s3)C2)cc1 (configuration not stated) |  | inactive: -9.45% |  |
| CCCn1c(N)c(C(=O)CSc2nc3ncc(Cl)cc3[nH]2)c(=O)[nH]c1=O | inconclusive: 12.6 µM [activator, single point] |  |  |
| COc1cccc(C(=O)Nc2c(C(=O)N3CCN(c4ccc(F)cc4)CC3)oc3ccccc23)c1 |  | inactive: 14.9% |  |
| S=C(NCCc1ccccc1)N/N=C/c1cccs1 |  | inconclusive: 38.4% [activator] |  |
| N#Cc1cccnc1N1CCN(C(=O)c2ccccc2)CC1 | inconclusive: 100 µM [activator, single point] |  |  |
| Brc1ccc(-c2nnc(-c3ccccc3Br)o2)cc1 |  | inactive: -63.8% [at 57.5 µM] |  |
| COc1cc2c(cc1OC)n(Cc1cccc(C(F)(F)F)c1)c(=O)n1nc(-c3ccccc3)nc21 | inconclusive: 79.4 µM [activator, partial curve, poor fit] |  |  |
| Cc1cc(C)c(NC(=O)CN(C)S(=O)(=O)c2ccc3c(c2)CCC(=O)N3)c(C)c1 |  |  | inactive |
| COc1ccc(NC(=O)CCCc2ccccc2)cc1OC |  |  | inactive |
| COc1ccc(CCNC(=O)CCc2ccccc2)cc1OC | inconclusive: 89.1 µM [activator, single point] |  |  |
| CCCOP(=O)(OCCC)C(Nc1ccc(C(=O)O)cc1)c1ccccc1 (configuration not stated) | inconclusive: 89.1 µM [activator, partial curve, poor fit] |  |  |
| COc1ccc(CCc2nc(-c3ccc(-n4cccc4)cc3)no2)cc1 |  |  | inactive |
| O=C(O)c1ccccc1C(=O)NCc1ccccc1 | inconclusive: 7.94 µM [activator, full curve, poor fit] |  |  |

| Structure (SMILES) | Potency | activation | outcome |
| --- | --- | --- | --- |
| O=C(Cn1c(=O)nc(-c2ccccc2)c2ccccc21)Nc1cccc(C(F)(F)F)c1 | inconclusive: 126 µM [activator, single point] |  |  |
| CCOc1ccccc1CN1CCN(S(=O)(=O)c2ccccc2)CC1 |  | inactive: -93.3% |  |
| Cc1ccc(CNC(=O)C2CC(=O)OC23CCCC3)c(C)c1 (configuration not stated) | inconclusive: 35.5 µM [activator, single point] |  |  |
| COc1ccc(NC(=O)c2cc3c(COC(C)=O)cnc(C)c3oc2=Nc2cccc(C(=O)O)c2)c(OC)c1 |  | inactive: -20.8% |  |
| O=C(Nc1ccccc1O)c1cc(S(=O)(=O)N2CCOCC2)c(Cl)cc1Cl |  | inconclusive: -24.1% [activator] |  |
| C[C@H]1[C@@H](Cc2cc(Cl)cc(Cl)c2)N(c2ccccc2)c2ccccc2CN1Cc1ccccc1 | inconclusive: 44.7 µM [activator, partial curve, poor fit] |  |  |
| Cc1ccc(NC(=O)Cn2cc(C(=O)C3CC3)c3ccccc32)c(C)c1 |  | inconclusive: 34.7% [activator] |  |
| O=C(COC(=O)CCc1ccccc1)Nc1ncc(Cl)cc1Cl | inconclusive: 10 µM [activator, partial curve, poor fit] |  |  |
| O=C(NCCc1ccc(Cl)cc1)Nc1ccc(F)cc1 | inconclusive: 126 µM [activator, single point] |  |  |
| O=C(N/N=C/c1ccccn1)c1cc(Br)ccc1O | inconclusive: 100 µM [activator, partial curve, poor fit] |  |  |
| Cc1cc(S(=O)(=O)NC2CCCCC2)ccc1OCC(=O)NCc1cccnc1 | inconclusive: 2.82 µM [activator, partial curve] |  |  |
| O=C(CN1C(=O)COc2ccc(S(=O)(=O)N3CCCC3)cc21)N1CCN(c2ccccc2)CC1 | inconclusive: 50.1 µM [activator, partial curve, poor fit] |  |  |
| COc1cc(OC)cc(-n2nnnc2SCC(=O)N2CCCc3ccccc32)c1 |  |  | inactive [at 57.5 µM] |
| CCOC(=O)c1[nH]c(C(=O)O)c(CCC(=O)OC)c1C | inconclusive: 44.7 µM [activator, single point] |  |  |
| COc1ccc(OC)c(NC(=O)CCCC(=O)NC2CCCCC2)c1 | inconclusive: 15.8 µM [activator, partial curve] |  |  |
| Cc1ccc(/C=N/NC(=O)c2cc(-c3cccnc3)nc3ccccc23)cc1 |  |  | inactive |
| COc1cc(/C=C2\SC(N)=NC2=O)ccc1O | inconclusive: 126 µM [activator, single point] |  |  |
| Cc1cc(C)n(-c2ccc(C(=O)OCC(=O)Nc3ccccc3[N+](=O)[O-])cc2)n1 |  | inconclusive: 36.5% [activator] |  |
| CCCCC(CC)C(=O)Nc1ccccc1C#N (configuration not stated) |  | inconclusive: 40.4% [activator] [at 57.5 µM] |  |
| CC(C)CN(C(=O)CN1CCN(c2cccc(Cl)c2)CC1)c1c(N)n(CC(C)C)c(=O)[nH]c1=O |  | inconclusive: 30.7% [activator] |  |
| COCCCNc1nc2c(c(=O)n(Cc3ccc(F)cc3)c(=O)n2C)n1C | inconclusive: 39.8 µM [activator, partial curve, poor fit] |  |  |
| CCSc1ncc(C)cc1[N+](=O)[O-] | inconclusive: 50.1 µM [activator, partial curve, poor fit] |  |  |
| COc1cc(/C=C/C(=O)c2ccc3c(c2)OCO3)cc(OC)c1OC |  | inactive: -27.1% |  |
| CCOc1cccc(C(=O)N(Cc2ccc(C)o2)C2CCS(=O)(=O)C2)c1 (configuration not stated) |  | inactive: -29.1% |  |

In a second layout: 2 of the compounds above
Structure (SMILES)	Potency	activation	outcome
CCOC(=O)c1[nH]c(C(=O)O)c(CCC(=O)OC)c1C	inconclusive: 44.7 µM [activator, single point]		
Cc1cc(C)n(-c2ccc(C(=O)OCC(=O)Nc3ccccc3[N+](=O)[O-])cc2)n1		inconclusive: 36.5% [activator]	

— PubChem BioAssay AID743266 (National Center for Advancing Translational Sciences (NCATS), 2014)
